Experimental data reported in paper PMC12505981.
Numbering of substitutions follows the chain as printed. Numbers in names are those of the source. These are yes or no findings as the source states them, for the method shown. For some assays here: A result given as binding can be weak or reduced; the word gives no strength. For some assays here: Sequences can lack the tags named with a protein. For some assays here: In cells and extracts the contact can be indirect. Each block holds one binder with its values, some of them ahead of it.

By UniProt entry, the sequences of proteins in these tests, tags left out. Where a name states a change or a piece, a line headed by the entry shows the natural chain unless it says otherwise.
UniProt P0AC30: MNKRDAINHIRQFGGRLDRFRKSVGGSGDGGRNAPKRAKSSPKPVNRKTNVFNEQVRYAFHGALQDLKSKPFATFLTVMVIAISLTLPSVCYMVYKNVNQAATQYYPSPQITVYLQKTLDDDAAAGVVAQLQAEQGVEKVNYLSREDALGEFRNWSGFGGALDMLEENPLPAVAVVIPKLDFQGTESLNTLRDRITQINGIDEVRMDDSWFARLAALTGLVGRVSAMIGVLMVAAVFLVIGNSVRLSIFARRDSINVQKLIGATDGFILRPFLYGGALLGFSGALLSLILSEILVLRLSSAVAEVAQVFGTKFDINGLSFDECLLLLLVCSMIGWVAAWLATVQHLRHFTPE

How the values were obtained:
[1] = biological target: EnvC(ΔCC) (wild-type) (E. coli); assay: pull-down; cleared E. coli C43(DE3) lysates mixed and incubated with Ni-IMAC resin overnight at 4°C; washed with 26 mM imidazole, 300 mM NaCl, 50 mM HEPES pH 7.2; eluted with 250 mM imidazole; SDS-PAGE; AmiA untagged
[2] = biological target: EnvC(ΔCC) I240E (E. coli); assay: as above
[3] = biological target: EnvC-FtsX periplasmic domain complex (wild-type) (E. coli); assay: as above
[4] = biological target: EnvC-FtsX periplasmic domain complex (wild-type) (E. coli); assay: pull-down; cysteine locking experiment without TCEP: cleared lysate of the EnvC-FtsX periplasmic domain complex mixed with lysate of untagged AmiA, Ni-IMAC overnight at 4°C, wash 35 mM imidazole, 300 mM NaCl, 50 mM HEPES pH 7.2; SDS-PAGE
[5] = biological target: EnvC-FtsX periplasmic domain complex (wild-type) (E. coli); assay: pull-down; cysteine locking experiment with 5 mM TCEP in lysates and washes: cleared lysate of the EnvC-FtsX periplasmic domain complex mixed with lysate of untagged AmiA, Ni-IMAC overnight at 4°C, wash 35 mM imidazole, 300 mM NaCl, 50 mM HEPES pH 7.2; SDS-PAGE
[6] = biological target: FtsX periplasmic domain (bacterial two-hybrid fusion) (E. coli) (UniProt P0AC30); assay: two-hybrid; BACTH (T18 and T25 fusions of split CyaA) in the cytoplasm of E. coli BTH101; cultures spotted on LB agar with X-gal and 0.5 mM IPTG, 20°C, 3 days
[7] = biological target: FtsX periplasmic domain (His-tagged) (E. coli) (UniProt P0AC30); assay: pull-down; cleared E. coli C43(DE3) lysates mixed and incubated with Ni-IMAC resin overnight at 4°C; washed with 26 mM imidazole, 300 mM NaCl, 50 mM HEPES pH 7.2; eluted with 250 mM imidazole; SDS-PAGE; AmiA untagged

- binding [1]: no binding
- binding [2]: binds
- binding [3]: binds weakly
- binding [4]: binds weakly
- binding [5]: binds weakly
B1: AmiA (untagged, over-expressed) (enzyme, UniProt P36548 35-289)
chain: KDELLKTSNGHSKPKAKKSGGKRVVVLDPGHGGIDTGAIGRNGSKEKHVVLAIAKNVRSILRNHGIDARLTRSGDTFIPLYDRVEIAHKHGADLFMSIHADGFTNPKAAGASVFALSNRGASSAMAKYLSERENRADEVAGKKATDKDHLLQQVLFDLVQTDTIKNSLTLGSHILKKIKPVHKLHSRNTEQAAFVVLKSPSVPSVLVETSFITNPEEERLLGTAAFRQKIATAIAEGVISYFHWFDNQKAHSKKR

- binding [6]: binds
B2: EnvC Arg237Glu (bacterial two-hybrid fusion) (protein, UniProt P37690 35-419)
chain: DERDQLKSIQADIAAKERAVRQKQQQRASLLAQLKKQEEAISEATRKLRETQNTLNQLNKQIDEMNASIAKLEQQKAAQERSLAAQLDAAFRQGEHTGIQLILSGEESQRGQRLQAYFGYLNQARQETIAQLKQTREEVAMQRAELEEKQSEQQTLLYEQRAQQAKLTQALNERKKTLAGLESSIQQGQQQLSELRANESRLENSIARAEAAAKARAEREAREAQAVRDRQKEATRKGTTYKPTESEKSLMSRTGGLGAPRGQAFWPVRGPTLHRYGEQLQGELRWKGMVIGASEGTEVKAIADGRVILADWLQGYGLVVVVEHGKGDMSLYGYNQSALVSVGSQVRAGQPIALVGSSGGQGRPSLYFEIRRQGQAVNPQPWLGR

- binding [6]: binds
B3: EnvC Glu233Arg (bacterial two-hybrid fusion) (protein, UniProt P37690 35-419)
chain: B2 chain with E199R, E203R

- binding [7]: binds
B4: EnvC I240E (co-expressed with the FtsX periplasmic domain) (protein, UniProt P37690 35-419)
chain: B2 chain with E203R, I206E

B5: EnvC L236E (bacterial two-hybrid fusion) (protein, UniProt P37690 35-419)
chain: B2 chain with L202E, E203R
- binding [6]: binds

B6: EnvC I240K (bacterial two-hybrid fusion) (protein, UniProt P37690 35-419)
chain: B2 chain with E203R, I206K
- binding [6]: binds

B7: EnvC I240E (bacterial two-hybrid fusion) (protein, UniProt P37690 35-419)
chain: B2 chain with E203R, I206E
- binding [6]: binds

- binding [7]: binds
B8: EnvC (wild-type, co-expressed with the FtsX periplasmic domain) (protein, UniProt P37690 35-419)
chain: B2 chain with E203R

- binding [6]: binds
B9: EnvC (wild-type, mature form, bacterial two-hybrid fusion) (protein, UniProt P37690 35-419)
chain: B2 chain with E203R

- binding [7]: binds
B10: EnvC(ΔNterm) (co-expressed with the FtsX periplasmic domain) (domain or fragment, UniProt P37690 55-419)
chain: RQKQQQRASLLAQLKKQEEAISEATRKLRETQNTLNQLNKQIDEMNASIAKLEQQKAAQERSLAAQLDAAFRQGEHTGIQLILSGEESQRGQRLQAYFGYLNQARQETIAQLKQTREEVAMQRAELEEKQSEQQTLLYEQRAQQAKLTQALNERKKTLAGLESSIQQGQQQLSELRANESRLRNSIARAEAAAKARAEREAREAQAVRDRQKEATRKGTTYKPTESEKSLMSRTGGLGAPRGQAFWPVRGPTLHRYGEQLQGELRWKGMVIGASEGTEVKAIADGRVILADWLQGYGLVVVVEHGKGDMSLYGYNQSALVSVGSQVRAGQPIALVGSSGGQGRPSLYFEIRRQGQAVNPQPWLGR
